# Literature values in US9528993B2, “Agents and methods related to screening for resistance to DR5 and reducing resistance to DR5 agonists” (The UAB Research Foundation, priority 2005, dated 2016).
# Tested on: GSK-3
# Settings: cited from earlier work
smiles,measurement,value
O=C1NC(=O)C(c2ccccc2[N+](=O)[O-])=C1Nc1ccc(O)c(Cl)c1 [SB415286],inhibition of GSK-3,potent
